Experimental data reported in the supplement of paper PMC3682954.
Several values for one entry are separate records, joined by “and”; a condition that tells them apart may be missing. Equal values may be shown once. Where a name gives a salt, the structure may show the parent alone. ± gives the standard deviation of the averaged measurements. Some of the results follow. Repeats are few or missing, and single values can be far off.

Tested on: RAW 264.7
Assay: HMGB1-induced TNF-alpha production relative to HMGB1-stimulated control; higher = more TNF-alpha secretion (less inhibition)
Conditions: stimulus: HMGB1 5 ug/ml, 18 h
[1] = compound concentration: 1 ug/ml

Compound | HMGB1-induced TNF-alpha production (compound concentration: 3 uM) | HMGB1-induced TNF-alpha production [1] [%]
CC1(C)O[C@@H]2C[C@H]3[C@@H]4CCC5=CC(=O)C=C[C@]5(C)[C@H]4[C@@H](O)C[C@]3(C)[C@]2(C(=O)CO)O1 | 43.9% | –
COc1ccccc1N1CCN(CCN(C(=O)c2ccc(F)cc2)c2ccccn2)CC1 [p-MPPF dihydrochloride] | 117% | –
c1ccc(-c2ccccn2)nc1 [2,2'-Bipyridyl] | 89.5% | –
CCN(CC)CCOc1ccc2c(c1)C(=O)c1cc(OCCN(CC)CC)ccc1-2 | 78.6% | –
Oc1ccc(Cn2cc[nH]c2=S)cc1 [1-(4-Hydroxybenzyl)imidazole-2-thiol] | 88.4% | –
CCN(CC)C(=S)SSC(=S)N(CC)CC [Disulfiram] | 70 ± 11% | –
CCN(CC)C(=S)SSC(=S)N(CC)CC | 70.1% | –
C=C[C@@]1(C)CC(=O)[C@]2(O)[C@@]3(C)[C@@H](O)CCC(C)(C)[C@@H]3[C@H](O)[C@H](OC(C)=O)[C@@]2(C)O1 [Forskolin] | 85.4% | –
C=C[C@@]1(C)CC(=O)[C@]2(O)[C@@]3(C)[C@@H](O)CCC(C)(C)[C@@H]3[C@H](O)[C@H](OC(C)=O)[C@@]2(C)O1 | 99.5% | –
CN(Cc1cnc2nc(N)nc(N)c2n1)c1ccc(C(=O)NC(CCC(=O)O)C(=O)O)cc1 (racemic) | 86.2 ± 5.4% | –
C/C(=C(\CCOP(=O)(O)O)SC(=O)c1ccccc1)N(C=O)Cc1cnc(C)nc1N [Benfotiamine] | 107% | –
C/C(=C(\CCOP(=O)(O)O)SC(=O)c1ccccc1)N(C=O)Cc1cnc(C)nc1N | 81.9% | –
Nc1ccc2cn[nH]c2c1 | 99% | –
Nc1c2c(nc3ccccc13)CCCC2 [Tacrine] | 93.2% | –
Nc1c2c(nc3ccccc13)CCCC2 [9-Amino-1,2,3,4-tetrahydroacridine hydrochloride] | 81.6% | –
Nc1c2c(nc3ccccc13)CCCC2 | 89.1% and 108% | –
NC[C@H]1CC[C@H](C(=O)Oc2ccc(CCC(=O)O)cc2)CC1 | 104% | –
Nc1ncnc2c1ncn2[C@@H]1O[C@H](COP(=O)(O)OP(=O)(O)O)[C@@H](O)[C@H]1O [Adenosine 5'-diphosphate, monosodium salt dihydrate] | – | 81.4
Nc1ncnc2c1ncn2[C@@H]1O[C@H](COP(=O)(O)OP(=O)(O)O)[C@@H](O)[C@H]1O [Adenosine-5'-diphosphate, disodium salt hydrate] | – | 81.5
O=c1cc(-c2ccccc2)oc2cc(O)cc(O)c12 [Chrysin] | – | 87.8
Cc1nc2sccn2c(=O)c1CCN1CCC(=C(c2ccccc2)c2ccc(F)cc2)CC1 [Diacylglycerol kinase inhibitor I] | 73.1% | –

Compound | HMGB1-induced TNF-alpha production (compound concentration: 3 uM) | HMGB1-induced TNF-alpha production [1] [%]
CC(C)=CCC/C(C)=C/CC/C(C)=C/CO [Farnesol, mixture of isomers] | – | 79.7
COc1c(-c2ccccc2)oc2c(ccc3occc32)c1=O [Karanjin] | – | 40.8
Cc1c(C(=O)O)c(O)cc2c1C(=O)c1c(O)c([C@@H]3O[C@H](CO)[C@@H](O)[C@H](O)[C@H]3O)c(O)c(O)c1C2=O [Carminic acid] | – | 79.8
CC(C)(C)C(=O)C(Oc1ccc(Cl)cc1)n1ccnc1 (configuration not stated) [Climbazole] | 101% | –
Cc1ccccc1OCC(O)CO (configuration not stated) | 83.1% | –
Cc1ccccc1OCC(O)CO (configuration not stated) [Mephenesin] | 89.2% | –
S=c1ccss1 | 80.9% | –
CC1=C(CC(=O)O)c2cc(F)ccc2/C1=C\c1ccc(S(C)(=O)=O)cc1 [Sulindac sulfone] | 96.2% | –
NC(N)=NC(=O)c1nc(Cl)c(N2CCCCCC2)nc1N [5-(N,N-hexamethylene)amiloride] | 72.4% | –
CS(=O)(=O)c1ccc(-c2cc(Br)sc2-c2ccc(F)cc2)cc1 | 92% | –
O=C1CN(/N=C/c2ccc([N+](=O)[O-])o2)C(=O)N1 [Nitrofurantoin] | 89.8% | –
O=C1CN(/N=C/c2ccc([N+](=O)[O-])o2)C(=O)N1 | 80.7% | –
C[C@H](N)[C@H](O)c1cccc(O)c1 [Metaraminol bitartrate] | 83.4% | –
C[C@H](N)[C@H](O)c1cccc(O)c1 | 70.9% | –
COc1ccc(C(=O)/C(Br)=C\C(=O)O)cc1 [Bromebric acid] | 79.5% | –
CCN(CC)CCOC(=O)C(Cc1cccc2ccccc12)CC1CCCO1 (configuration not stated) | 84.2% | –
CCN(CC)CCOC(=O)C(Cc1cccc2ccccc12)CC1CCCO1 (configuration not stated) [Nafronyl oxalate] | 73.1% | –
CC1(C)S[C@@H]2[C@H](NC(=O)C(C(=O)O)c3ccccc3)C(=O)N2[C@H]1C(=O)O (some centres not stated) | 101% | –
O=C1CN(/N=C/c2ccc(-c3ccc([N+](=O)[O-])cc3)o2)C(=O)N1 | 92.1% | –
O=C1CN(/N=C/c2ccc(-c3ccc([N+](=O)[O-])cc3)o2)C(=O)N1 [Dantrolene sodium salt] | 77.7% | –
O=C1CN(/N=C/c2ccc(-c3ccc([N+](=O)[O-])cc3)o2)C(=O)N1 [Dantrolene sodium] | 92% | –

Compound | HMGB1-induced TNF-alpha production (compound concentration: 3 uM) | HMGB1-induced TNF-alpha production [1] [%]
COc1cc(O)c2c(c1)C(=O)c1cc(C)cc(O)c1C2=O | 95.4% | –
CC(C)[C@H]1c2ccc(F)cc2CC[C@@]1(CCN(C)CCCc1nc2ccccc2[nH]1)OC(=O)C1CC1 | 111% | –
CCOC(=O)n1ccn(C)c1=S | 76.5% | –
CCOC(=O)n1ccn(C)c1=S [Carbimazole] | 70.4% | –
NC(=O)NC(CC(=O)O)C(=O)O (racemic) [Ureidosuccinic acid; Carbamoyl-dl-aspartic acid] | – | 89.1
CC1(C)S[C@@H]2[C@H](NC(=O)[C@H](C(=O)O)c3ccsc3)C(=O)N2[C@H]1C(=O)O | 99.4% | –
CC1(C)S[C@@H]2[C@H](NC(=O)[C@H](C(=O)O)c3ccsc3)C(=O)N2[C@H]1C(=O)O [Ticarcillin sodium] | 126% | –
CN[C@@H]1[C@@H](O)[C@@H](O[C@@H]2[C@@H](O)[C@H](O[C@H]3OC(CN)=CC[C@H]3N)[C@@H](N)C[C@H]2N)OC[C@]1(C)O [Sisomicin sulfate] | 58.5% | –
CN[C@@H]1[C@@H](O)[C@@H](O[C@@H]2[C@@H](O)[C@H](O[C@H]3OC(CN)=CC[C@H]3N)[C@@H](N)C[C@H]2N)OC[C@]1(C)O | 84.7% | –
Cc1cc(NS(=O)(=O)c2ccc(N)cc2)no1 | 88.4% | –
Cc1cc(NS(=O)(=O)c2ccc(N)cc2)no1 [Sulfamethoxazole] | 87.5% | –
O=C(c1ccc2c(c1)OCCO2)N1CCCCC1 | 101% | –
Nc1cc(Cl)c(NC2=NCCN2)c(Cl)c1 [p-Aminoclonidine hydrochloride] | 85.3% | –
C(=C\c1ccccc1)/CN1CCN(C(c2ccccc2)c2ccccc2)CC1 | 93.1% | –
NO [Hydroxylamine hydrochloride] | 108% | –
Cc1c(-c2cnccn2)ssc1=S [Oltipraz] | 67.3% | –
Nc1nc(Cl)nc2c1ncn2[C@@H]1O[C@H](CO)[C@@H](O)[C@H]1O [2-Chloroadenosine] | 75.1% | –
Nc1nc(Cl)nc2c1ncn2[C@@H]1O[C@H](CO)[C@@H](O)[C@H]1O | 110% | –
O=c1[nH]c2ccccc2n1CCCN1CCN(C(c2ccccc2)c2ccccc2)CC1 [Oxatomide] | 88.3% | –
O=c1c(O[C@@H]2O[C@H](CO)[C@H](O)[C@H](O)[C@H]2O)c(-c2ccc(O)c(O)c2)oc2cc(O)cc(O)c12 | 106% | –
CC(=O)OCC(=O)[C@@]1(O)CCC2C3CCC4=CC(=O)C=C[C@]4(C)[C@@]3(F)[C@@H](O)C[C@@]21C (some centres not stated) | 44.6% | –

Another view of some results above:
Compound	HMGB1-induced TNF-alpha production (compound concentration: 3 uM)	HMGB1-induced TNF-alpha production [1] [%]
C=C[C@@]1(C)CC(=O)[C@]2(O)[C@@]3(C)[C@@H](O)CCC(C)(C)[C@@H]3[C@H](O)[C@H](OC(C)=O)[C@@]2(C)O1 [Forskolin]	85.4%	–
Nc1c2c(nc3ccccc13)CCCC2	89.1% and 108%	–
O=c1cc(-c2ccccc2)oc2cc(O)cc(O)c12 [Chrysin]	–	87.8
Nc1nc(Cl)nc2c1ncn2[C@@H]1O[C@H](CO)[C@@H](O)[C@H]1O	110%	–
CC(=O)OCC(=O)[C@@]1(O)CCC2C3CCC4=CC(=O)C=C[C@]4(C)[C@@]3(F)[C@@H](O)C[C@@]21C (some centres not stated)	44.6%	–

Next part

Compound | HMGB1-induced TNF-alpha production (compound concentration: 3 uM) | HMGB1-induced TNF-alpha production [1] [%]
C[C@@H]1C[C@H]2[C@@H]3CCC4=CC(=O)C=C[C@]4(C)[C@@]3(F)[C@@H](O)C[C@]2(C)[C@@]1(O)C(=O)COP(=O)(O)O | 47.9% | –
CCN(CC)CCNC(C(=O)OCCC(C)C)c1ccccc1 (configuration not stated) | 92.4% | –
C[C@]12CC[C@@H]3c4ccc(OC(=O)c5ccccc5)cc4CC[C@H]3[C@@H]1CC[C@@H]2O | 92.5% | –
C[C@]12CC[C@@H]3c4ccc(OC(=O)c5ccccc5)cc4CC[C@H]3[C@@H]1CC[C@@H]2O [estradiol benzoate] | – | 76
CN1CCN(C(c2ccccc2)c2ccccc2)CC1 | 65.9% | –
CN1CCN(C(c2ccccc2)c2ccccc2)CC1 [Cyclizine hydrochloride] | 51.4% | –
CC[C@H](CO)Nc1nc(NCc2ccccc2)c2ncn(C(C)C)c2n1 [Roscovitine] | 87.4% | –
OCCN(CCO)c1nc(N2CCCCC2)c2nc(N(CCO)CCO)nc(N3CCCCC3)c2n1 [Dipyridamole] | 83.6 ± 18% | –
OCCN(CCO)c1nc(N2CCCCC2)c2nc(N(CCO)CCO)nc(N3CCCCC3)c2n1 | 101% | –
O=C(O)c1ccccc1C(=O)Nc1ccc(S(=O)(=O)Nc2nccs2)cc1 [Phthalylsulfathiazole] | 96.4% | –
O=C(O)c1ccccc1C(=O)Nc1ccc(S(=O)(=O)Nc2nccs2)cc1 | 71.4% | –
C[N+](C)(C)CC(=O)O | 91.2% | –
C[N+](C)(C)CC(=O)O [Betaine hydrochloride] | 53.3% | –
N[C@@H](CS(=O)O)C(=O)O [L-Cysteinesulfinic Acid] | 85.8% | –
NC[C@@H]1O[C@@H](O[C@H]2[C@H](O)[C@@H](O[C@H]3O[C@H](CO)[C@@H](O)[C@H](N)[C@H]3O)[C@H](N)C[C@@H]2N)[C@@H](O)[C@H](O)[C@H]1O [Kanamycin A sulfate] | 89.7% | –
NC[C@@H]1O[C@@H](O[C@H]2[C@H](O)[C@@H](O[C@H]3O[C@H](CO)[C@@H](O)[C@H](N)[C@H]3O)[C@H](N)C[C@@H]2N)[C@@H](O)[C@H](O)[C@H]1O | 95.1% | –
COC(=O)[C@H](NC(=O)c1cc(-c2ccccc2)nc2ccccc12)c1ccccc1 | 83% | –
N#Cc1cc2nc(O)c(O)nc2cc1[N+](=O)[O-] [CNQX disodium] | 85.5% | –
COC(=O)C1=C(C#N)NC(C)=C(C(=O)OC(C)C)C1c1cccc([N+](=O)[O-])c1 (configuration not stated) [Nilvadipine] | 85.7% | –
